Reference: PubChem BioAssay AID504648 (National Center for Advancing Translational Sciences (NCATS), 2011)
Screen size: about 390,000 compounds; about 610 (0.16%) were called active. The source calls these results inconclusive, neither active nor inactive. Calls follow the shape of the dose curve; as a rule, active = well fitted inhibition curve with a large enough effect; inconclusive = small, poorly fitted or top-dose-only effect, or effect the other way, or another doubt; inactive = no such curve, though single readings can be large or run the other way. Some results for these compounds are left out of this collection, so the calls shown say nothing about other tests.
Potency is read from the fitted curve at half-maximal effect.

Assay: Nrf2 qHTS screen for inhibitors: counterscreen for cytotoxicity
Conditions: A549 ARE-Fluc cells, CellTiter-Fluor viability, 18-24 h
From the text: NIH Molecular Libraries Probe Production Network [MLPCN]
NIH Chemical Genomics Center [NCGC]
Assay Provider: Shyam Biswal, Johns Hopkins University
Nrf2 is a transcription factor that maintains cellular redox homoestasis and protects cells from xenobiotics. Nrf2 binds to the antioxidant response element (ARE) to induce gene expression of a broad spectrum of genes that encode for antioxidants. […] Finding a small molecule that act as an inhibitor of Nrf2 function would represent a novel therapeutic target that could lead to improvement in survival of patients undergoing chemo- and/or radio- therapy.
So here we implemented a counterscreen to weed out the cytotoxic compounds.
1. […]
A concentration-response assay was performed with A549 ARE_Fluc cells which are suspended in 5% FBS OPTI-MEM. […] The plate is then incubated at 37deg C at 5% CO2 for 30 minutes before they are read on the ViewLux (Perkin Elmer) for a fluorescent read Ex=405(10)/Em=525(10) for a 3 second exposure, 2x binning, and high gain. […] Afterwards another ViewLux read is performed using the clear filter to get a luminescent read with the settings of 40 second exposure, 2x binning, and high gain. Cytotoxicity is assessed through the first fluorescent read and then biochemical activity against Nrf2 is measured in the luminescent read.
For O=C(NCC1(N2CCCCC2)CCCCC1)c1cccc(Cl)c1, the Potency was inconclusive: 6.51 µM.
